# Data as given in PubChem BioAssay AID686943 (Drosophila RNAi Screening Center, 2013).
# Test: 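Knockdowns that increase or decrease active ERK after insulin receptor stimulation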 (primary screen)
# System: Drosophila S2R+ haemocyte-like cells expressing YFP-tagged ERK (Rolled)
# Knock-down reagent: long dsRNA against Drosophila genes
# Challenge: insulin stimulation versus unstimulated cells; dose and duration not given
# Read-out: 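Per-plate z-scores of phospho-ERK immunostaining normalised to YFP-tagged ERK, measured with and without insulin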
# Scale: replicate 1, z-score of dpERK with insulin and replicate 2, z-score of dpERK with insulin: higher = more active ERK per ERK-YFP after insulin
# The deposit covers about 23,000 reagents; below is an unselected part of those with a known target gene and a result. 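Extra replicates exist only for a retested subset of genes; insulin dose and duration not given; both raised and lowered dpERK matter.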 Names joined by + are all predicted targets of the reagent. Further read-outs or replicates are left out here. Not given: the amount of reagent, the time to read-out.
The opening 3 records as a preview:
target gene,PubChem SID,"replicate 1, z-score of dpERK with insulin","replicate 2, z-score of dpERK with insulin"
lectin-46Ca,SID104186404,-0.13,0.51
CG8745,SID104190825,-0.51,-0.09
CG8745,SID104190826,0.34,0.94

The listing, from the start:
target gene,PubChem SID,"replicate 1, z-score of dpERK with insulin","replicate 2, z-score of dpERK with insulin"
lectin-46Ca,SID104186404,-0.13,0.51
CG8745,SID104190825,-0.51,-0.09
CG8745,SID104190826,0.34,0.94
CG8745,SID104202113,-0.33,0.75
rdo (reduced ocelli),SID104182244,-0.93,0.51
Alk (Anaplastic lymphoma kinase),SID104185710,1.24,0.66
APC4 (Anaphase Promoting Complex subunit 4),SID104198152,0.55,-0.16
CG13920,SID104188181,-0.29,0.01
stx (stuxnet),SID104198234,-2.84,-2.11
stx (stuxnet),SID104198235,-1.65,0.26
pigeon,SID104183357,-1.1,-0.74
mRpL27 (mitochondrial ribosomal protein L27),SID104201994,-0.06,-0.62
CG1273,SID104188083,-0.2,-0.11
"Sr-CIV (Scavenger receptor class C, type IV)",SID104180367,1.02,-0.95
Nxt1 (NTF2-related export protein 1),SID104184422,-0.15,-0.64
timeout,SID104192742,0.32,0.67
timeout,SID104196870,-2.41,-0.21
timeout,SID104196871,0.28,0.28
timeout,SID104196872,0.37,0.38
timeout,SID104196873,0.4,0.45
timeout,SID104201253,0.9,0.11
CG4957,SID104182585,-0.19,0.06
Klp59C (Kinesin-like protein at 59C),SID104184140,-0.04,1.07
CG15546,SID104194876,1.61,-0.01
CG15546,SID104202190,0.57,0.8
Boh2 (Buddy of Hmr 2),SID104182569,0.52,-0.13
Cyp12a4 (Cytochrome P450 12a4),SID104196412,0.25,0.38
CG4467,SID104195377,0.97,-0.34
Gem4b + Gem4c + Glos,SID104198036,1.27,0.57
RpL22-like (Ribosomal protein L22-like),SID104184374,1,0.35
Wnk (Wnk kinase),SID104191605,-0.11,-3.67
BG642163,SID104180134,0.53,0
BG642163,SID104180135,-0.31,0.41
vsg (visgun),SID104190011,-0.71,0.45
nerfin-1 (nervous fingers 1),SID104188521,-0.69,1.28
CG7194,SID104190576,0.25,-0.17
CG4820,SID104195446,-0.2,0.1
AGO1 (Argonaute-1),SID104185704,3.77,1.06
eIF3k (eukaryotic translation initiation factor 3 subunit k),SID104183848,0.2,0.86
CG13564,SID104183993,-0.1,-0.08
Phae1 (Phaedra 1),SID104182346,0.85,0.49
CG7289,SID104180489,0.63,0.23
Vha13 (Vacuolar H[+] ATPase 13kD subunit),SID104196687,-0.17,0.86
CG34458,SID104186717,0.85,0.75
PpY-55A (Protein phosphatase Y at 55A),SID104187305,-1.36,-0.88
CG4701,SID104181744,-0.93,-1.47
Tmem131 (Transmembrane protein 131),SID104186946,-0.28,-0.93
Npc2f (Niemann-Pick type C-2f),SID104195772,0.79,-0.09
CG7824,SID104196113,-0.32,-0.17
Rpn13R (Regulatory particle non-ATPase 13-related),SID104198196,-0.89,0.44
CG33252,SID104198954,0.24,0.28
TppII (Tripeptidyl-peptidase II),SID104187357,-0.91,-0.38
CG6870,SID104182790,0.35,-0.03
CG13930,SID104188191,-0.24,0.03
CG11327,SID104181938,-0.36,0.02
Dr (Drop),SID104196794,0.7,0.38
Dr (Drop),SID104202093,-1.82,-1.57
